The list shows a part of the results.

The chains behind the UniProt entries cited, without tags or fusion partners.
UniProt Q0JBA9, entry or part of it: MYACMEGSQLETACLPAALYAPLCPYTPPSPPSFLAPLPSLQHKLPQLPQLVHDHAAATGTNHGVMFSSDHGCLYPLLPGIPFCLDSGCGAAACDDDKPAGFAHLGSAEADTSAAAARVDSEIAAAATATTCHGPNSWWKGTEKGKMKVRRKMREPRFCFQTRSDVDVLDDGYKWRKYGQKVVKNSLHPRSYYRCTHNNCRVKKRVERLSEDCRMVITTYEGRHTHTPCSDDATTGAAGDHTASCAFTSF

This experiment concerns the target OsWRKY34 (Oryza sativa, UniProt Q0JBA9 1-250). Description: protein-binding microarray (RPBM); PBS, 2% BSA, 51.3 ng/ul salmon testes DNA, 50 uM zinc acetate, 200 nM TF, 25 C, 1 h; high values mean tight binding. As to conditions: protein: recombinant; tags: N-terminal polyhistidine and DsRed monomer fusion (pET32a); label: CyDye5-dUTP incorporated in the synthesized complementary strand; 3' TTTTT single-stranded linker to array surface; dsDNA, one strand shown. The procedure, abridged: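 Per-feature fluorescence intensity (arbitrary units), read on an Axon 4000B scanner, is the binding signal. Transcription factors carrying an N-terminal polyhistidine tag and DsRed fusion were expressed in E. coli BL21-CodonPlus and purified on Ni–NTA. A custom Agilent array, made double-stranded by primer extension with Cy5-dUTP and blocked with 2% BSA, was incubated with 200 nM protein in PBS, 2% BSA, salmon testes DNA and 50 µM zinc acetate at 25 °C for 1 h and then washed.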
Turning to “CCGTTCGCCACGTCCATCCGTTTTCTGTGCCATAGGCAGGCGGAGTCACCTAGTGCAG”, the binding signal is 9340 fluorescence intensity (a.u.).

On to “CGCTTCCCAACTATCAAATCTGCACCATCCATTCCTCATCCGGAGTCACCTAGTGCAG”, for which the binding signal was 8420 fluorescence intensity (a.u.).

For the sequence “GTGCTTCTGAGAACTCAAGGCTTGTCATGGCTATCTTACTCGGAGTCACCTAGTGCAG”, the binding signal is 9070 fluorescence intensity (a.u.).

Take “TAGTATCATCAGTTCATCACCAACCTCTCTCTCGTCTTCTCGGAGTCACCTAGTGCAG”: the binding signal is 8080 fluorescence intensity (a.u.).

Regarding “TGGCACACTCCCTTGGCAACTCTTAATTACACGTGAGCTACGGAGTCACCTAGTGCAG”, the binding signal was 8510 fluorescence intensity (a.u.).

Regarding “CAGTTGTTATATGTACCCAAAGATTCGGCCATTGCATCCACGGAGTCACCTAGTGCAG”, the binding signal was 8190 fluorescence intensity (a.u.).

With “ATATATATAATCTTCATGGTCATCTCGATCACTTGTTTGACGGAGTCACCTAGTGCAG”, the binding signal is 9720 fluorescence intensity (a.u.).

Consider “CCTTGTTGGATCTCTCTGGCTCATGTTTCTGCTCAGCTCACGGAGTCACCTAGTGCAG”, for which the binding signal was 9130 fluorescence intensity (a.u.).

Turning to “TGATGTTTTTTTTACTGTGTTCTCTTGCAGAATAGCTCTCCGGAGTCACCTAGTGCAG”, the binding signal is 12000 fluorescence intensity (a.u.).

In the case of “GGCTCGCGGAGGGCGGGGCTGGGATGGTGGCGGATGGGAGCGGAGTCACCTAGTGCAG”, the binding signal was 10800 fluorescence intensity (a.u.).

Turning to “TTACCTCCATGCCACATCTCTCTCTCTAGCTTGTCTATGTCGGAGTCACCTAGTGCAG”, the binding signal was 8090 fluorescence intensity (a.u.).

As for “ACCCTGCACATTCTCGTTGCTATTGTGTACTTATTTTGGACGGAGTCACCTAGTGCAG”, the binding signal was 9650 fluorescence intensity (a.u.).

“CCGTCTCCGCCGCCCCGCCCTCCTCCTCGCCGGCGGCGCTCGGAGTCACCTAGTGCAG”: the binding signal was 8250 fluorescence intensity (a.u.).

Regarding “TCACACCTCATTTAATCCTAGCTATTTATCCATTTCCTTTCGGAGTCACCTAGTGCAG”, the binding signal was 9890 fluorescence intensity (a.u.).

Regarding “CTCCTGGCAACCCCATGCACTGCTTTTGCTGCCCTTAAGTCGGAGTCACCTAGTGCAG”, the binding signal is 8620 fluorescence intensity (a.u.).

For the sequence “AGATCCAAACACGTCACAATATACCATCACTGCGGCCGCCCGGAGTCACCTAGTGCAG”, the binding signal was 8210 fluorescence intensity (a.u.).

Consider “CGTGTGGTTGATTGTGTGTGCGAGCCGAATGCTGCCTACTCGGAGTCACCTAGTGCAG”, for which the binding signal was 9260 fluorescence intensity (a.u.).

For “TCCGTGATTCAGTCATTCTCCCTGGTTCAGTCCATTCTCACGGAGTCACCTAGTGCAG”, the binding signal was 10800 fluorescence intensity (a.u.).

As for “TTATTGCTCGCAGTTCTTGCTGGGTGGTGGTGGTGGTTCACGGAGTCACCTAGTGCAG”, the binding signal is 11300 fluorescence intensity (a.u.).

Turning to “TCCTGTCCAGTCTCCACTCGCAAACCCTTCTCGCCGCCATCGGAGTCACCTAGTGCAG”, the binding signal was 10400 fluorescence intensity (a.u.).

Turning to “GTCACGCGCGCGCACGCACGCACGCGGCTTTGGGTTTTTTCGGAGTCACCTAGTGCAG”, the binding signal is 8260 fluorescence intensity (a.u.).

Take “CCCTTCTTATCCTCTTCTTGATGCTAATTTACCGTCTTTCCGGAGTCACCTAGTGCAG”: the binding signal is 8740 fluorescence intensity (a.u.).

In the case of “ATACTATTATATCGGGCCTCCACGGAGAGCGGGGACGGGGCGGAGTCACCTAGTGCAG”, the binding signal is 8700 fluorescence intensity (a.u.).

In the case of “GCCCCATCGCCGCCGGCCTCTCCTCCTCCTCCCACTATATCGGAGTCACCTAGTGCAG”, the binding signal is 8690 fluorescence intensity (a.u.).

As to “TCTCCTCCTGACAGCTAAGCACCAAACCATCACTTCACTCCGGAGTCACCTAGTGCAG”, the binding signal was 8640 fluorescence intensity (a.u.).

“CCCGTCGCTTGCCAGTTCACCCCAACATCCCAGAAATTCACGGAGTCACCTAGTGCAG”: the binding signal was 8610 fluorescence intensity (a.u.).

For “TGTACGGCATGCGTCTGTTTGGTCTTTGGAGCCTCGACTGCGGAGTCACCTAGTGCAG”, the binding signal was 8820 fluorescence intensity (a.u.).

For “TTCGTCACCTCGCCGGCTATAAAACCCGCTCGCTGCGCCTCGGAGTCACCTAGTGCAG”, the binding signal is 11000 fluorescence intensity (a.u.).

For “GCTTTATCGTGCAAACACCTAAGCTGATAAAGGCAAAGGTCGGAGTCACCTAGTGCAG”, the binding signal was 23200 fluorescence intensity (a.u.).

As for “TCCGTCACATCGAACTTTCCTACACACAAATTTTCAATTTCGGAGTCACCTAGTGCAG”, the binding signal was 9370 fluorescence intensity (a.u.).

As to “TCCATTGTTTCCTCGGCATGCAATCTTTTTCACTAATTCTCGGAGTCACCTAGTGCAG”, the binding signal was 11800 fluorescence intensity (a.u.).

As for “TCAGTACTACCTTCTGCATCTTTGAGCTTCATCTGATTTTCGGAGTCACCTAGTGCAG”, the binding signal was 8980 fluorescence intensity (a.u.).

For “CTGCCGCCGCTCCGTGTCATCGCGGCCGTCCATTTAGAACCGGAGTCACCTAGTGCAG”, the binding signal was 8540 fluorescence intensity (a.u.).

For the sequence “ACCATCGTAGTATCGACTTGTACAATTGAATCTCACATTCCGGAGTCACCTAGTGCAG”, the binding signal was 10200 fluorescence intensity (a.u.).

For the sequence “TGGGCTATGGGCATGTATTGAAGGGTCCTGCAGTTATAATCGGAGTCACCTAGTGCAG”, the binding signal is 10100 fluorescence intensity (a.u.).

As to “CTATAATTATTTGTCGACTAAATCTGCCTTTCATCTTTCTCGGAGTCACCTAGTGCAG”, the binding signal was 8160 fluorescence intensity (a.u.).

For “AGTCTTTCATCATTTATCTTTTGGCTCATCAACCGCTACCCGGAGTCACCTAGTGCAG”, the binding signal was 8990 fluorescence intensity (a.u.).

Consider “TTGGTTTCTGCCTCGCCAGCTTCAACTACTCTCCTCCAGGCGGAGTCACCTAGTGCAG”, for which the binding signal is 9010 fluorescence intensity (a.u.).

For the sequence “AAGTCGGCCACCATCGCAGCAGCATGTAGTATTCATTTCTCGGAGTCACCTAGTGCAG”, the binding signal is 8170 fluorescence intensity (a.u.).

Consider “AAGTTTGTGACAGCATATTATCATCCCAAGTTCCAGTATACGGAGTCACCTAGTGCAG”, for which the binding signal was 8130 fluorescence intensity (a.u.).

Regarding “GGTTTGTATCTTTCACTTTCTGTTCACTATGGATGTATTACGGAGTCACCTAGTGCAG”, the binding signal was 10600 fluorescence intensity (a.u.).

Take “CAAATCTACTACTACTACATATGAAGACCATGGGTTCATGCGGAGTCACCTAGTGCAG”: the binding signal was 9470 fluorescence intensity (a.u.).
